Results as given in PMC5589630.
Where two headings read alike, the source gives them in different places. These are yes or no findings as the source states them, for the method shown. Binding seen in cells or lysates may run through a third protein. Some results given as binding are weak or reduced against the parent protein; the word gives no strength.

By UniProt entry, the sequences of proteins in these tests, tags left out.
UniProt P49841: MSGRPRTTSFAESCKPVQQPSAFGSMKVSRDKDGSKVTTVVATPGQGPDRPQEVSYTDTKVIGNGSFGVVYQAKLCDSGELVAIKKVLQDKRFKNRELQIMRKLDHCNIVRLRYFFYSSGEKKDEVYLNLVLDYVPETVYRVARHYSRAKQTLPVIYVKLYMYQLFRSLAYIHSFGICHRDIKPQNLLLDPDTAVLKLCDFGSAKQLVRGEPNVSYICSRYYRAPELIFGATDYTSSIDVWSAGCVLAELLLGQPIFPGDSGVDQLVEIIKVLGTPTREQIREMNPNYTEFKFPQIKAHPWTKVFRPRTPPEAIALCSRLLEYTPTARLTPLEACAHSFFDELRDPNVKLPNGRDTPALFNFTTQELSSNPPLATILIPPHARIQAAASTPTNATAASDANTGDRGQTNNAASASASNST
UniProt Q9WV60: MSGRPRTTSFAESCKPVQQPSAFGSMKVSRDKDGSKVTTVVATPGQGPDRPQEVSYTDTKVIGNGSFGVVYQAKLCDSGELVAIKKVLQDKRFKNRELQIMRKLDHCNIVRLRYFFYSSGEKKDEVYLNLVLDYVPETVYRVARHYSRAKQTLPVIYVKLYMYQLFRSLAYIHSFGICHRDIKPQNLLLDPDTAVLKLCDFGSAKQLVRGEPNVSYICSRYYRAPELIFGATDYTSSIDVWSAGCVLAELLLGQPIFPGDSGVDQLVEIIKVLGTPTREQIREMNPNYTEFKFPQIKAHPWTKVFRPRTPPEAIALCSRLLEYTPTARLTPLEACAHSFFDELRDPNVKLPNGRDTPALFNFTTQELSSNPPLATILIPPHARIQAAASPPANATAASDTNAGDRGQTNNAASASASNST
UniProt O00327: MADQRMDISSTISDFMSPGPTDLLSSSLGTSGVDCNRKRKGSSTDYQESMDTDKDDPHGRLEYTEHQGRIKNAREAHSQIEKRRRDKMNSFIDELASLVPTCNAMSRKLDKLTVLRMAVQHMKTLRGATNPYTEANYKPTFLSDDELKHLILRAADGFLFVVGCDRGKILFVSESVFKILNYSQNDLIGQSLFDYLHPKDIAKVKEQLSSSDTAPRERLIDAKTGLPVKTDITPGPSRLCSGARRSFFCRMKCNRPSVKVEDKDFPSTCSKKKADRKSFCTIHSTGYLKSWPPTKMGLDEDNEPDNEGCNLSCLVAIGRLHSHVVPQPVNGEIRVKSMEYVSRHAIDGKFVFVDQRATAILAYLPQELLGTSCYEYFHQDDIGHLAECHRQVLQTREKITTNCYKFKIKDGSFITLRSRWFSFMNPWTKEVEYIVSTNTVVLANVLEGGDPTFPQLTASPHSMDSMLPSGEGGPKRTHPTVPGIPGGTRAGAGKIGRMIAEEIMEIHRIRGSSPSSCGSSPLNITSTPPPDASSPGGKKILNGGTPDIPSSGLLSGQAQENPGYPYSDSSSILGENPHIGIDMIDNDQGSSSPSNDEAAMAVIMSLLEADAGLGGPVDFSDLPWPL
UniProt Q9WTL8: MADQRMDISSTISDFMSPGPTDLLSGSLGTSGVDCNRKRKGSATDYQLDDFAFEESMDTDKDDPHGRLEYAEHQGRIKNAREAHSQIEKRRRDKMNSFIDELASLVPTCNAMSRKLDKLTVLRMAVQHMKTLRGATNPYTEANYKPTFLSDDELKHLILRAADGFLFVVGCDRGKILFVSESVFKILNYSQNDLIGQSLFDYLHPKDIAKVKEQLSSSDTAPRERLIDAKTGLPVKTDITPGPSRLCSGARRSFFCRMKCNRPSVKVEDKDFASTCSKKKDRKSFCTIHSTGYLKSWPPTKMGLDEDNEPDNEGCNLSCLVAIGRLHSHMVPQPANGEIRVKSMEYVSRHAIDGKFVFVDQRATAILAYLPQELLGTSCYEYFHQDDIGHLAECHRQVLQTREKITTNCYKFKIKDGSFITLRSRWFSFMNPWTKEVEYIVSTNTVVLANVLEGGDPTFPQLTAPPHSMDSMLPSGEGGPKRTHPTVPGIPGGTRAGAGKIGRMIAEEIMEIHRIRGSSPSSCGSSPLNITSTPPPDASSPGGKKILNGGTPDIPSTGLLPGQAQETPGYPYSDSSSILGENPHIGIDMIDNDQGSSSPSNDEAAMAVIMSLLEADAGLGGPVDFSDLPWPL
UniProt Q8TC59: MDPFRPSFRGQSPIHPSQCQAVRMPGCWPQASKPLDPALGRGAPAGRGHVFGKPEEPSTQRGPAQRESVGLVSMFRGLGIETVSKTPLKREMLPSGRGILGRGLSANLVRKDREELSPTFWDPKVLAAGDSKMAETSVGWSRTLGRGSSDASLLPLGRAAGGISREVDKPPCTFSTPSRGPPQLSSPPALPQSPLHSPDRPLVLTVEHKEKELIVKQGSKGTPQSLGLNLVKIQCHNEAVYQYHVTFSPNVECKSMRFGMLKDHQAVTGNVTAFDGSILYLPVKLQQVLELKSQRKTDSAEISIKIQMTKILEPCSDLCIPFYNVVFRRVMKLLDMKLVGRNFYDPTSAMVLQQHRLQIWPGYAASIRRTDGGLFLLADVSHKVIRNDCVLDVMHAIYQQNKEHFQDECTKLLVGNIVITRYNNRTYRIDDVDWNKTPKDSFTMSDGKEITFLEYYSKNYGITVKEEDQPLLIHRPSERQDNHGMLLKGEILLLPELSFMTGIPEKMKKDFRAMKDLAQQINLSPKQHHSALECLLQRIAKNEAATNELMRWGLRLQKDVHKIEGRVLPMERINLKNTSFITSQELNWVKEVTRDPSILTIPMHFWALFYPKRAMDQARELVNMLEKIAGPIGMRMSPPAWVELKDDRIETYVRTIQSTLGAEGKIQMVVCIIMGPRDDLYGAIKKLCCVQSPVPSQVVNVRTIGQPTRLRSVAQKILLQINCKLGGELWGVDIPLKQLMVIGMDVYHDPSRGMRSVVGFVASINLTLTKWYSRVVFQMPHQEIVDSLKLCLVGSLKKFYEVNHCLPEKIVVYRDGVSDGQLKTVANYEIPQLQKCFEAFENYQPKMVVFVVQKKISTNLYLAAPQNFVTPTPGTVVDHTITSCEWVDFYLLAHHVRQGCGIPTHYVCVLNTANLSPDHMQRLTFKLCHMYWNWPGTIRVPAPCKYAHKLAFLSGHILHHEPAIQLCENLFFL

Assays:
[1] = target: glycogen synthase kinase 3 beta (endogenous in HeLa cells) (human (endogenous in HeLa)) (UniProt P49841); experiment: co-IP; immunoprecipitation from HeLa lysate, with and without overexpression of PIWIL2 (Figure 3H)
[2] = target: glycogen synthase kinase 3 beta (mouse) (mouse (endogenous in GC-1 and GC-2)) (UniProt Q9WV60); experiment: co-IP; immunoprecipitation from lysates of GC-1 and GC-2 cells, control and stable Piwil2 knock-down; anti-GSK3β for GSK3β with BMAL1/CLOCK
[3] = target: T1, CLOCK (endogenous in HeLa cells) (human (endogenous in HeLa)) (UniProt O15516); experiment: co-IP; immunoprecipitation from HeLa lysate, endogenous proteins; 0.8 μg antibody 2 h at 4°C, protein G&A agarose overnight, four washes in ice-cold PBS pH 7.4
T1 sequence: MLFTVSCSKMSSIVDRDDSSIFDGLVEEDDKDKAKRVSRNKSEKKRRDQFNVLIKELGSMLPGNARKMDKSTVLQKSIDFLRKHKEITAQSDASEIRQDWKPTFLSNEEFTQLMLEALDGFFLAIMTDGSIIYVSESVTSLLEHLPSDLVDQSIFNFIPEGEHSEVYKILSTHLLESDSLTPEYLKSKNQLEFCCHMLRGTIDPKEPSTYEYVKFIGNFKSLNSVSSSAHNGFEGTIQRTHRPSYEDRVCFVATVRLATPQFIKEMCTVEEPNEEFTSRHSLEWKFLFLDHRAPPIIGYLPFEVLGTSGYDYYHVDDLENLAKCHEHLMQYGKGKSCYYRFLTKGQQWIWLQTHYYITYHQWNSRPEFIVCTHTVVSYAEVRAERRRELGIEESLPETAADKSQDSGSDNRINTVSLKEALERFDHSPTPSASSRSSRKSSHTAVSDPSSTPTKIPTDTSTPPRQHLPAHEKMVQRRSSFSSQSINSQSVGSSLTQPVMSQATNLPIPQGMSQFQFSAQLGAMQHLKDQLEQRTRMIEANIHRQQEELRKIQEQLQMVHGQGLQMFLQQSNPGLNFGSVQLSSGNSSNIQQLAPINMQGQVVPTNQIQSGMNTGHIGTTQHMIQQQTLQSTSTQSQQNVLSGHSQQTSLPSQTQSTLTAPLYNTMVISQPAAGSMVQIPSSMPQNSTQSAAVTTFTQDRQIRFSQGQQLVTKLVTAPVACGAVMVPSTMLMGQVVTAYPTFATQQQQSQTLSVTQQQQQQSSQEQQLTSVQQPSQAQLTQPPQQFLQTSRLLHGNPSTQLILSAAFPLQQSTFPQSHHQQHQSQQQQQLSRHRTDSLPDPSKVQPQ

[4] = target: BMAL1 (endogenous in HeLa cells) (human (endogenous in HeLa)) (UniProt O00327); experiment: as above
[5] = target: glycogen synthase kinase 3 beta (mouse) (mouse (endogenous in GC-1 and GC-2)) (UniProt Q9WV60); experiment: co-IP; immunoprecipitation from lysates of GC-1 and GC-2 cells, control and stable Piwil2 knock-down; anti-GSK3β for GSK3β with BMAL1/CLOCK; remark: listed apart in the source

BMAL1 (endogenous in HeLa cells) (from UniProt O00327 1-626)
binding [1]: binds

BMAL1 (mouse) (from UniProt Q9WTL8 1-632)
binding [2]: binds

PIWIL2 (endogenous in HeLa cells) (from UniProt Q8TC59 1-973)
binding [3]: binds
binding [4]: binds

B1: CLOCK (mouse) (protein, UniProt O08785 1-855)
chain: MVFTVSCSKMSSIVDRDDSSIFDGLVEEDDKDKAKRVSRNKSEKKRRDQFNVLIKELGSMLPGNARKMDKSTVLQKSIDFLRKHKETTAQSDASEIRQDWKPTFLSNEEFTQLMLEALDGFFLAIMTDGSIIYVSESVTSLLEHLPSDLVDQSIFNFIPEGEHSEVYKILSTHLLESDSLTPEYLKSKNQLEFCCHMLRGTIDPKEPSTYEYVRFIGNFKSLTSVSTSTHNGFEGTIQRTHRPSYEDRVCFVATVRLATPQFIKEMCTVEEPNEEFTSRHSLEWKFLFLDHRAPPIIGYLPFEVLGTSGYDYYHVDDLENLAKCHEHLMQYGKGKSCYYRFLTKGQQWIWLQTHYYITYHQWNSRPEFIVCTHTVVSYAEVRAERRRELGIEESLPETAADKSQDSGSDNRINTVSLKEALERFDHSPTPSASSRSSRKSSHTAVSDPSSTPTKIPTDTSTPPRQHLPAHEKMTQRRSSFSSQSINSQSVGPSLTQPAMSQAANLPIPQGMSQFQFSAQLGAMQHLKDQLEQRTRMIEANIHRQQEELRKIQEQLQMVHGQGLQMFLQQSNPGLNFGSVQLSSGNSNIQQLTPVNMQGQVVPANQVQSGHISTGQHMIQQQTLQSTSTQQSQQSVMSGHSQQTSLPSQTPSTLTAPLYNTMVISQPAAGSMVQIPSSMPQNSTQSATVTTFTQDRQIRFSQGQQLVTKLVTAPVACGAVMVPSTMLMGQVVTAYPTFATQQQQAQTLSVTQQQQQQQQQPPQQQQQQQQSSQEQQLPSVQQPAQAQLGQPPQQFLQTSRLLHGNPSTQLILSAAFPLQQSTFPPSHHQQHQPQQQQQLPRHRTDSLTDPSKVQPQ
binding [5]: binds
